{"sequences": {"note": "Sequences of proteins named here, by UniProt entry; tags and fusion partners are left off. Residues count along the entry.", "UniProt P16234, residues 24-1089": "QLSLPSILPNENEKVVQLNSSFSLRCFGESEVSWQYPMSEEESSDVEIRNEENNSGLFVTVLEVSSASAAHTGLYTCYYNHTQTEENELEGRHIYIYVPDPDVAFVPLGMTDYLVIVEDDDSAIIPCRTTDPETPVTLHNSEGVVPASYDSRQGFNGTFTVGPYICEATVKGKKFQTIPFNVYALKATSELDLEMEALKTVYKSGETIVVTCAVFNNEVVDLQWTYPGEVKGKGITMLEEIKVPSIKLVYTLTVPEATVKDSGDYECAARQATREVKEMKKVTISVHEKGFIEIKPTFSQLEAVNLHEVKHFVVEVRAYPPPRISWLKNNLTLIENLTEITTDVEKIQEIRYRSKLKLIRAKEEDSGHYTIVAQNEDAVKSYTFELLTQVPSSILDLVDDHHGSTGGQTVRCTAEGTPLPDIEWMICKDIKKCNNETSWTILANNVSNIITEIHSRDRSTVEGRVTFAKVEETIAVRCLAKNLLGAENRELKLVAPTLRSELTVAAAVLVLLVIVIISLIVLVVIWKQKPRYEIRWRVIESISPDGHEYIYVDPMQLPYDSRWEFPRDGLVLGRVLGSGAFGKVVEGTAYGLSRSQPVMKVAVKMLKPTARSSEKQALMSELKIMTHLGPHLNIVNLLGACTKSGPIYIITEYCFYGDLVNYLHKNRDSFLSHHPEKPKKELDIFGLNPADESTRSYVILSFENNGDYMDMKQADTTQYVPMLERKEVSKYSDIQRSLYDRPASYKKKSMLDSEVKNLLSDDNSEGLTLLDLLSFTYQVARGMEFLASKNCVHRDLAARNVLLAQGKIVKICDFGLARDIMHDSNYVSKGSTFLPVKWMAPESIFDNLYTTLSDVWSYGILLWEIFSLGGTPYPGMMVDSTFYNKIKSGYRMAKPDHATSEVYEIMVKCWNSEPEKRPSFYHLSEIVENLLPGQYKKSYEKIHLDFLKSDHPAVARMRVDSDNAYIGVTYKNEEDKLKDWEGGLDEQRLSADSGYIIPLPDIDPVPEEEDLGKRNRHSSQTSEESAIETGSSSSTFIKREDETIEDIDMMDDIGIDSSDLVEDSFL"}, "source": "paper PMC5564588", "target": "platelet-derived growth factor receptor beta (human (endogenous in normal human Schwann cells)) (UniProt P09619)", "experiment": "co-IP; 100 μg total Schwann cell protein lysate (1% NP-40 buffer), pre-cleared 1 h on agarose protein G beads, immunoprecipitated with PDGFRβ antibody overnight, collected with protein G beads 2 h; GFP-control-infected and KIR2DL5A/B shRNA knock-down (sh#1-3) normal human Schwann cells", "note": "No constants are given. Whether binding was seen depends on the method and setting. In cells and extracts the contact can be indirect. Some entries that bind do so weakly or less than the wild type."}
{"substance": "PDGFRα (from UniProt P16234 24-1089) (receptor)", "values": [{"measurement": "binding", "result": "binds"}]}
